Test results taken from publication PMC11349179, “Comparative analysis of the LARP1 C-terminal DM15 region through Coelomate evolution” (PLOS ONE, 2024).
Weaker means in comparison with the reference protein, sequence or condition of that experiment. For part of these data: For at least one entry, the source does not settle the construct or the ends of the probe.

Chains of the proteins cited; added tags and fusions are not shown. Chains listed by the source or under a name are the forms on record and can include a tag or linker.
DmREYA R1381E,Y1417A (fruit fly), one chain, as listed by the source R1381E Y1417A: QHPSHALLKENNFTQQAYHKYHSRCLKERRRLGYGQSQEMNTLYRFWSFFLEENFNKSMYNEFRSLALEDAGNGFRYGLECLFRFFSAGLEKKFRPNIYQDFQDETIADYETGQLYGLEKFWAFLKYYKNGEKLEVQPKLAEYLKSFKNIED

Tests used:
Test in all cases: EMSA
[1] = tested on: DmREYA R1381E,Y1417A (fruit fly); conditions: 587-3594-fold range vs WT over the three orthologs, value only in Fig 4E; 5' m7G cap (Vaccinia capping); EMSA: 20 mM Tris-HCl pH 8, 150 mM NaCl, 10% glycerol, 1 mM DTT, 0.5 ug tRNA, 1 ug BSA, pM RNA (95 C, snap cooled), 0.5-1 h on ice; native 7% PAGE, 0.5X TBE; recombinant protein; protein details: His6-MBP removed by TEV; label: 32P in cap
[2] = molecular target: DrREYA (zebrafish) (UniProt F1R0U5); conditions: 587-3594-fold range vs WT over the three orthologs, value only in Fig 4E; 5' m7G cap (Vaccinia capping); EMSA: 20 mM Tris-HCl pH 8, 150 mM NaCl, 10% glycerol, 1 mM DTT, 0.5 ug tRNA, 1 ug BSA, pM RNA (95 C, snap cooled), 0.5-1 h on ice; native 7% PAGE, 0.5X TBE; recombinant protein; label: 32P in cap
[3] = tested on: HsREYA R840E,Y883A (Homo sapiens); conditions: 587-3594-fold range vs WT over the three orthologs, value only in Fig 4E; 5' m7G cap (Vaccinia capping); EMSA: 20 mM Tris-HCl pH 8, 150 mM NaCl, 10% glycerol, 1 mM DTT, 0.5 ug tRNA, 1 ug BSA, pM RNA (95 C, snap cooled), 0.5-1 h on ice; native 7% PAGE, 0.5X TBE; recombinant protein; protein details: His6-MBP removed by TEV; label: 32P in cap

Measured: binding result

CUUUUGCCAUUGUCAGCCGACGAAGUGCUUUAACCCAAACUA [DmRPL30 42-mer, capped]
binds more weakly: all assays above
